The list shows a part of the results. Many values rest on one well or one pass, so single values are uncertain.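 Imaging used 1,536-well plates; nuclei positive for cleaved PARP by antibody were divided by total DNA-stained nuclei to yield the apoptosis fraction. Doses for screening kept most cells viable, and cell lines differ markedly in resting and induced cleaved-PARP levels.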
What was measured:
Assay in all cases: cleaved PARP positive nuclei fraction relative to DMSO control; melanoma cells; higher = more apoptosis
Details in all cases: library dose: low library concentration; 72 h
MZ2-MEL = tested on: MZ2-MEL
MeWo = tested on: MeWo
RPMI7951 = tested on: RPMI7951
RVH-421 = tested on: RVH-421
SkMel28 = tested on: SkMel28
SkMel2 = tested on: SkMel2
SkMel30 = tested on: SkMel30
SkMel5 = tested on: SkMel5
UACC257 = tested on: UACC257
UACC62 = tested on: UACC62

Row | SMILES | cleaved PARP positive nuclei fraction (MZ2-MEL) [%] | cleaved PARP positive nuclei fraction (MeWo) [%] | cleaved PARP positive nuclei fraction (RPMI7951) [%] | cleaved PARP positive nuclei fraction (RVH-421) [%] | cleaved PARP positive nuclei fraction (SkMel28) [%] | cleaved PARP positive nuclei fraction (SkMel2) [%] | cleaved PARP positive nuclei fraction (SkMel30) [%] | cleaved PARP positive nuclei fraction (SkMel5) [%] | cleaved PARP positive nuclei fraction (UACC257) [%] | cleaved PARP positive nuclei fraction (UACC62) [%]
1 | C[C@@H](N)c1ccc(C(=O)Nc2ccnc3[nH]ccc23)cc1 + NCC(=O)Nc1ccc(-n2nc(C(F)(F)F)cc2-c2ccc3c(ccc4ccccc43)c2)cc1 [OSU03012] (first compound 0.4 µM, partner dose 1 µM) | 278 | 213 | 37.7 | 166 | 179 | 297 | 132 | 157 | 186 | 76.2
2 | CS(=O)(=O)c1ccc(C(=O)Nc2ccc(Cl)c(-c3ccccn3)c2)c(Cl)c1 [vismodegib] + CO[C@@H]1[C@H](N(C)C(=O)c2ccccc2)C[C@H]2O[C@]1(C)n1c3ccccc3c3c4c(c5c6ccccc6n2c5c31)C(=O)NC4 [Midostaurin] (first compound 1 µM, partner dose 0.08 µM) | 49.2 | 122 | 101 | 365 | 71.7 | 61.8 | 64 | 32.2 | 127 | 147
3 | CCN(CC)CCNC(=O)c1c(C)[nH]c(/C=C2\C(=O)Nc3ccc(F)cc32)c1C [sunitinib] + O=C1NC(=O)/C(=C/c2ccc(-c3ccc(F)cc3O)o2)S1 [AS252424] (first compound 0.4 µM, partner dose 1 µM) | 148 | 66.7 | 101 | 171 | 64.9 | 36.2 | 51.4 | 69 | 102 | 55.1
4 | COc1ccc(C2=N[C@@H](c3ccc(Cl)cc3)[C@@H](c3ccc(Cl)cc3)N2C(=O)N2CCNC(=O)C2)c(OC(C)C)c1 [Nutlin-3] + c1cc(-c2cnn3cc(-c4ccc(OCCN5CCCCC5)cc4)cnc23)ccn1 [Dorsomorphin] (first compound 0.1 µM, partner dose 0.4 µM) | 41.1 | 92.1 | 43.7 | 62.5 | 110 | 36.5 | 107 | 84.1 | 143 | 54.1
5 | CCN(CC)CCNC(=O)c1c(C)[nH]c(/C=C2\C(=O)Nc3ccc(F)cc32)c1C [sunitinib] + COC(=O)c1sccc1S(=O)(=O)Nc1ccc(Nc2ccccc2)cc1OC [GSK0660] (first compound 0.4 µM, partner dose 1 µM) | 73.7 | 136 | 193 | 118 | 136 | 27.5 | 75.4 | 286 | 89.4 | 178
6 | CC1(C)CCC(c2ccc(Cl)cc2)=C(CN2CCN(c3ccc(C(=O)NS(=O)(=O)c4ccc(N[C@H](CCN5CCOCC5)CSc5ccccc5)c(S(=O)(=O)C(F)(F)F)c4)cc3)CC2)C1 + CC(C)CCN1c2nc(Nc3cc(F)c(O)c(F)c3)ncc2N(C)C(=O)C1C [BID1870] (first compound 0.4 µM, partner dose 0.2 µM) | 243 | 207 | 293 | 57.5 | 88.8 | 114 | 162 | 980 | 19.8 | 867
7 | NC(=O)c1ccc(N(C(N)=O)c2c(F)cccc2F)nc1-c1ccc(F)cc1F + CC1(C)NC(=O)N(c2ccc([N+](=O)[O-])c(C(F)(F)F)c2)C1=O [nilutamide] (first compound 0.4 µM, partner dose 1 µM) | 135 | 291 | 180 | 125 | 28.6 | 72 | 62.7 | 78.6 | 71.5 | 54.9
8 | CS(=O)(=O)c1ccc(C(=O)Nc2ccc(Cl)c(-c3ccccn3)c2)c(Cl)c1 [vismodegib] + O=C(O)c1ccc(-c2c[nH]c3ncc(-c4ccccc4)cc23)cc1C1CCCC1 [GSK650394] (first compound 1 µM, partner dose 0.16 µM) | 81.6 | 234 | 62.5 | 93.5 | 28.2 | 62.1 | 67.8 | 68.6 | 109 | 99.8
9 | Cn1sc(=O)n(Cc2ccccc2)c1=O + Cc1cc(N2CCOCC2)cc2[nH]c(-c3c(NC[C@@H](O)c4cccc(Cl)c4)cc[nH]c3=O)nc12 [BMS536924] (first compound 0.4 µM, partner dose 0.2 µM) | 250 | 49.3 | 46.2 | 70.7 | 64.8 | 104 | 190 | 146 | 74.9 | 233
10 | CS(=O)(=O)c1ccc(C(=O)Nc2ccc(Cl)c(-c3ccccn3)c2)c(Cl)c1 [vismodegib] + C[C@@H]1CCN(C(=O)CC#N)C[C@@H]1N(C)c1ncnc2[nH]ccc12 [CP690550] (first compound 1 µM, partner dose 1 µM) | 99.7 | 57.3 | 106 | 57.8 | 58.3 | 92 | 62.8 | 108 | 34.6 | 27.3
11 | CCN(CC)CCNC(=O)c1c(C)[nH]c(/C=C2\C(=O)Nc3ccc(F)cc32)c1C [sunitinib] + CC(C)(C)c1cnc(CSc2cnc(NC(=O)C3CCNCC3)s2)o1 [SNS-032] (first compound 0.4 µM, partner dose 0.01 µM) | 132 | 81.2 | 120 | 108 | 67.2 | 151 | 90.2 | 181 | 241 | 339

Looked up above:
In cleaved PARP positive nuclei fraction (MZ2-MEL) [%], CCN(CC)CCNC(=O)c1c(C)[nH]c(/C=C2\C(=O)Nc3ccc(F)cc32)c1C [sunitinib] + COC(=O)c1sccc1S(=O)(=O)Nc1ccc(Nc2ccccc2)cc1OC [GSK0660] (first compound 0.4 µM, partner dose 1 µM) is entered as 73.7
In cleaved PARP positive nuclei fraction (UACC62) [%], CS(=O)(=O)c1ccc(C(=O)Nc2ccc(Cl)c(-c3ccccn3)c2)c(Cl)c1 [vismodegib] + CO[C@@H]1[C@H](N(C)C(=O)c2ccccc2)C[C@H]2O[C@]1(C)n1c3ccccc3c3c4c(c5c6ccccc6n2c5c31)C(=O)NC4 [Midostaurin] (first compound 1 µM, partner dose 0.08 µM) is entered as 147
